Results are given in words; binding and its absence hold for the method and conditions named. Binding seen in cells or lysates may run through a third protein. Some binding calls cover weakened binding; strength is not graded here.
Biological target: Cyclin-dependent kinase 5 (UniProt Q00535)
Assay: co-IP; tissues or cells lysed in RIPA buffer with protease and phosphatase inhibitors; incubated with an antibody against Cdk5 and protein A/G Sepharose; Drosha detected by Western blot; source of the lysate not stated

binding: binds
B1: Drosha (enzyme, UniProt Q9NRR4 1-1374)
chain: MMQGNTCHRMSFHPGRGCPRGRGGHGARPSAPSFRPQNLRLLHPQQPPVQYQYEPPSAPSTTFSNSPAPNFLPPRPDFVPFPPPMPPSAQGPLPPCPIRPPFPNHQMRHPFPVPPCFPPMPPPMPCPNNPPVPGAPPGQGTFPFMMPPPSMPHPPPPPVMPQQVNYQYPPGYSHHNFPPPSFNSFQNNPSSFLPSANNSSSPHFRHLPPYPLPKAPSERRSPERLKHYDDHRHRDHSHGRGERHRSLDRRERGRSPDRRRQDSRYRSDYDRGRTPSRHRSYERSRERERERHRHRDNRRSPSLERSYKKEYKRSGRSYGLSVVPEPAGCTPELPGEIIKNTDSWAPPLEIVNHRSPSREKKRARWEEEKDRWSDNQSSGKDKNYTSIKEKEPEETMPDKNEEEEEELLKPVWIRCTHSENYYSSDPMDQVGDSTVVGTSRLRDLYDKFEEELGSRQEKAKAARPPWEPPKTKLDEDLESSSESECESDEDSTCSSSSDSEVFDVIAEIKRKKAHPDRLHDELWYNDPGQMNDGPLCKCSAKARRTGIRHSIYPGEEAIKPCRPMTNNAGRLFHYRITVSPPTNFLTDRPTVIEYDDHEYIFEGFSMFAHAPLTNIPLCKVIRFNIDYTIHFIEEMMPENFCVKGLELFSLFLFRDILELYDWNLKGPLFEDSPPCCPRFHFMPRFVRFLPDGGKEVLSMHQILLYLLRCSKALVPEEEIANMLQWEELEWQKYAEECKGMIVTNPGTKPSSVRIDQLDREQFNPDVITFPIIVHFGIRPAQLSYAGDPQYQKLWKSYVKLRHLLANSPKVKQTDKQKLAQREEALQKIRQKNTMRREVTVELSSQGFWKTGIRSDVCQHAMMLPVLTHHIRYHQCLMHLDKLIGYTFQDRCLLQLAMTHPSHHLNFGMNPDHARNSLSNCGIRQPKYGDRKVHHMHMRKKGINTLINIMSRLGQDDPTPSRINHNERLEFLGDAVVEFLTSVHLYYLFPSLEEGGLATYRTAIVQNQHLAMLAKKLELDRFMLYAHGPDLCRESDLRHAMANCFEALIGAVYLEGSLEEAKQLFGRLLFNDPDLREVWLNYPLHPLQLQEPNTDRQLIETSPVLQKLTEFEEAIGVIFTHVRLLARAFTLRTVGFNHLTLGHNQRMEFLGDSIMQLVATEYLFIHFPDHHEGHLTLLRSSLVNNRTQAKVAEELGMQEYAITNDKTKRPVALRTKTLADLLESFIAALYIDKDLEYVHTFMNVCFFPRLKEFILNQDWNDPKSQLQQCCLTLRTEGKEPDIPLYKTLQTVGPSHARTYTVAVYFKGERIGCGKGPSIQQAEMGAAMDALEKYNFPQMAHQKRFIERKYRQELKEMRWEREHQEREPDETEDIKK

Reference: publication PMC10834983
